According to patent US5097013A (Kao Corporation, priority 1988, dated 1992):
Some peptides are written in HELM: one residue between dots, names in brackets for other building blocks, links after the first $. Square brackets hold non-standard residues; d marks the D form. * marks the point of attachment. Fmoc = O=C(OCC1c2ccccc2-c2ccccc21)*

Experiments:
[1] = Fmoc solid-phase peptide synthesis; chloromethyl, oxymethyl or benzhydrylamine resin; 4-(oxymethyl)phenylacetamidomethyl resin; BHA resin (Example 53); settings: whole synthesis; for isolated yield: scale of the general procedure 0.5 mmol (Example 53)
[2] = general procedure: peptide synthesis; chloromethyl, oxymethyl or benzhydrylamine resin; 4-(oxymethyl)phenylacetamidomethyl resin; BHA resin (Example 53); settings: for isolated mass / isolated yield: whole synthesis; for isolated yield: scale of the general procedure 0.5 mmol (Example 53); for step yield: late stage modification step

Row | Substance | isolated mass [1] [mg] | isolated yield [1] [%] | isolated mass [2] [mg] | isolated yield [2] [%] | step yield [2] [%]
1 | H-RLGRQDG-NH2 | 240 | 60.0 | – | – | –
2 | PEPTIDE1{W.L.G.R}$$$$V2.0 | 333 | 63.5 | – | – | –
3 | PEPTIDE1{[Fmoc].W.L.G.R.E.D.G.S.E}$$$$V2.0 | – | – | 261 | 50.0 | –
4 | H-L-Trp-L-AIa-Gly-L-Arg-L-Glu-L-Asp-Gly-L-Ser-L-Glu-NH2 | 159 | 31.6 | – | – | –
5 | H-WPREDGSE-OH | – | – | 122 | 25.0 | –
6 | Fmoc-WLGREDGSE-OH | 180 | 28.4 | – | – | –
7 | H-WLGRENGSE-OH | – | – | 355 | 67.8 | –
8 | H-L-Glu-L-Asp-Gly-L-Ser-L-Glu-OH | 163 | 60.7 | – | – | –
9 | H-WLGRGDGSE-OH | 182 | 37.3 | – | – | –
10 | H-WLGREDGCE-OH | 199 | 37.4 | – | – | –
11 | Fmoc-W[dL]GRED-OH | 119 | 23.9 | – | – | –
12 | H-L-Trp-L-Leu-Gly-L-Arg-L-Glu-OH | – | – | 148 | 44.9 | –
13 | H-WLGREDGSE-NH2 | 270 | 51.6 | – | – | –
14 | H-LGREDGSE-OH | 220 | 51.1 | – | – | –
15 | H-WLGRQNGSQ-NH2 | 386 | 73.9 | – | – | –
16 | H-WLGREDGAE-OH | – | – | 266 | 51.5 | –
17 | H-FLGREDGSE-OH | – | – | 232 | 46.0 | –
18 | H-WLGKEDGSE-OH | – | – | 203 | 39.8 | –
19 | H-WLGREDGLL-NH2 | 102 | 19.3 | – | – | –
20 | Fmoc-WLGRE[dD]-OH | 180 | 36.0 | – | – | –
21 | H-WLGRED-OH | – | – | 241 | 62.2 | –
22 | H-WLGQRS-OH | 141 | 37.8 | – | – | –
23 | PEPTIDE1{[Fmoc].[dW].L.G.R.E.D}$$$$V2.0 | 268 | 51.1 | – | – | –
24 | Fmoc-WLGR[dE]D-OH | 178 | 35.7 | – | – | –
25 | H-RLGRQDK-OH | 309 | 70.9 | – | – | –
26 | H-W[dL]GREDGSE-OH | 288 | 55.0 | – | – | –
27 | PEPTIDE1{[Fmoc].W.L.G.R.[dE].D}$$$$V2.0 | 152 | 32.6 | – | – | –

Row | Substance | isolated mass [1] [mg] | isolated yield [1] [%] | isolated mass [2] [mg] | isolated yield [2] [%] | step yield [2] [%]
28 | H-MWLGRED-OH | 210 | 46.4 | – | – | –
29 | H-WLGRED-NH2 | 152 | 39.3 | – | – | –
30 | H-WLGR[dE]DGSE-OH | 180 | 36.0 | – | – | –
31 | H-WAGREDGSE-OH | – | – | 285 | 56.7 | –
32 | H-RLGRQDG-OH | 260 | 65.0 | – | – | –
33 | Fmoc-[dW]LGRED-OH | 138 | 27.7 | – | – | –
34 | PEPTIDE1{[Fmoc].W.L.G.R.E.[dD]}$$$$V2.0 | 100 | 20.3 | – | – | –
35 | H-WLGREDGS-OH | – | – | 184 | 40.0 | –
36 | PEPTIDE1{W.L.G.R.Q.N.G.S.Q.[am]}$$$$V2.0 | – | – | 108 | 19.6 | –
37 | H-KWLGREDGSE-OH | 168 | 28.6 | – | – | –
38 | H-WLG[dR]EDGSE-OH | 274 | 52.3 | – | – | –
39 | PEPTIDE1{W.L.G.R.G.D.G.S.E}$$$$V2.0 | 50 | 16.1 | – | – | –
40 | H-[dW]LGRED-OH | – | – | – | – | 100
41 | PEPTIDE1{[Fmoc].W.L.G.R.E.D}$$$$V2.0 | 307 | 58.2 | – | – | –
42 | PEPTIDE1{[Fmoc].W.[dL].G.R.E.D}$$$$V2.0 | 405 | 77.3 | – | – | –
43 | H-WLGREDG-OH | – | – | 107 | 25.7 | –
44 | H-W[dL]GRED-OH | – | – | – | – | 96.4
45 | H-WAGRED-OH | 77 | 21.0 | – | – | –
46 | H-L-Trp-L-Leu-Gly-L-Arg-OH | 52 | 19.4 | – | – | –
47 | H-L-Arg-L-Leu-Gly-L-Arg-L-Gln-OH | 204 | 64.9 | – | – | –
48 | Fmoc-WLGRED-OH | 162 | 32.5 | – | – | –
49 | H-WLGLEDGSE-OH | 317 | 63.1 | – | – | –
50 | H-WLGRQDGSE-OH | – | – | 194 | 37.1 | –
51 | H-WVREDGSE-OH | 323 | 66.1 | – | – | –
52 | H-WGGREDGSE-OH | 147 | 29.6 | – | – | –
53 | H-WLGREDGSD-OH | – | – | 335 | 64.0 | –
54 | H-WIIREDGSE-OH | 326 | 59.1 | – | – | –
